Reference: PMC11423137
No constants are given. Whether binding was seen depends on the method and setting. In cells and extracts the contact can be indirect. Some results given as binding are weak or reduced against the parent protein; the word gives no strength.

Amino acid sequences for entries named in this document (tags omitted).
UniProt P21673: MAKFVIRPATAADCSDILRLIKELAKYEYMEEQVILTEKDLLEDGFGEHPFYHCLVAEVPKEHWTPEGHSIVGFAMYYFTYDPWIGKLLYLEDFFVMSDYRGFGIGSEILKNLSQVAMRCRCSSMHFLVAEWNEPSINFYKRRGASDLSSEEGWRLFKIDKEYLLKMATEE
UniProt P67809: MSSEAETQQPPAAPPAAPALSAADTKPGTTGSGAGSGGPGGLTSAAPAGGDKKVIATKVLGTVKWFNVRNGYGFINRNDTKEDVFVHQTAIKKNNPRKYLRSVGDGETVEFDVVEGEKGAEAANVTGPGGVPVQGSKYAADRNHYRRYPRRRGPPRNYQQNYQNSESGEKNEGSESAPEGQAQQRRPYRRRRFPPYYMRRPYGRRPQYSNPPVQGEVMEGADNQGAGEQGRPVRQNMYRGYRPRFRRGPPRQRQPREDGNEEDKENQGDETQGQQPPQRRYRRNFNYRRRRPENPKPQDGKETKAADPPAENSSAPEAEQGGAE

Tests used:
[1] = target: Spermidine/Spermine N1-acetyltransferase 1 (human (endogenous in BT549 and SUM159PT)) (UniProt P21673); assay: co-IP; lysates in IP lysis buffer with PMSF; primary antibody overnight at 4 °C, protein A/G magnetic beads 3 h at 4 °C; immunoblot; BT549 and SUM159PT (SAT1-YBX1), BT549 (HERC5-YBX1)
[2] = target: Y-box binding protein 1 (human (endogenous in BT549 and SUM159PT)) (UniProt P67809); assay: as above

Molecule: Y-box binding protein 1 (from UniProt P67809 1-324)
- binding [1]: binds

B1: E3 ligase HERC5 (enzyme, UniProt Q9UII4 1-1024)
chain: MERRSRRKSRRNGRSTAGKAAATQPAKSPGAQLWLFPSAAGLHRALLRRVEVTRQLCCSPGRLAVLERGGAGVQVHQLLAGSGGARTPKCIKLGKNMKIHSVDQGAEHMLILSSDGKPFEYDNYSMKHLRFESILQEKKIIQITCGDYHSLALSKGGELFAWGQNLHGQLGVGRKFPSTTTPQIVEHLAGVPLAQISAGEAHSMALSMSGNIYSWGKNECGQLGLGHTESKDDPSLIEGLDNQKVEFVACGGSHSALLTQDGLLFTFGAGKHGQLGHNSTQNELRPCLVAELVGYRVTQIACGRWHTLAYVSDLGKVFSFGSGKDGQLGNGGTRDQLMPLPVKVSSSEELKLESHTSEKELIMIAGGNQSILLWIKKENSYVNLKRTIPTLNEGTVKRWIADVETKRWQSTKREIQEIFSSPACLTGSFLRKRRTTEMMPVYLDLNKARNIFKELTQKDWITNMITTCLKDNLLKRLPFHSPPQEALEIFFLLPECPMMHISNNWESLVVPFAKVVCKMSDQSSLVLEEYWATLQESTFSKLVQMFKTAVICQLDYWDESAEENGNVQALLEMLKKLHRVNQVKCQLPESIFQVDELLHRLNFFVEVCRRYLWKMTVDASENVQCCVIFSHFPFIFNNLSKIKLLHTDTLLKIESKKHKAYLRSAAIEEERESEFALRPTFDLTVRRNHLIEDVLNQLSQFENEDLRKELWVSFSGEIGYDLGGVKKEFFYCLFAEMIQPEYGMFMYPEGASCMWFPVKPKFEKKRYFFFGVLCGLSLFNCNVANLPFPLALFKKLLDQMPSLEDLKELSPDLGKNLQTLLDDEGDNFEEVFYIHFNVHWDRNDTNLIPNGSSITVNQTNKRDYVSKYINYIFNDSVKAVYEEFRRGFYKMCDEDIIKLFHPEELKDVIVGNTDYDWKTFEKNARYEPGYNSSHPTIVMFWKAFHKLTLEEKKKFLVFLTGTDRLQMKDLNNMKITFCCPESWNERDPIRALTCFSVLFLPKYSTMETVEEALQEAINNNRGFG
- binding [2]: binds
